Source: paper doi:10.1101/2021.07.29.454247
Read-outs that look alike come from different tables or passages of the source. No constants are given. Whether binding was seen depends on the method and setting. In cells and extracts the contact can be indirect. Some entries that bind do so weakly or less than the wild type.

By UniProt entry, the sequences of proteins in these tests, tags left out. Where a name states a change or a piece, a line headed by the entry shows the natural chain unless it says otherwise. Residues count along the entry.
UniProt Q00960, 27-1482: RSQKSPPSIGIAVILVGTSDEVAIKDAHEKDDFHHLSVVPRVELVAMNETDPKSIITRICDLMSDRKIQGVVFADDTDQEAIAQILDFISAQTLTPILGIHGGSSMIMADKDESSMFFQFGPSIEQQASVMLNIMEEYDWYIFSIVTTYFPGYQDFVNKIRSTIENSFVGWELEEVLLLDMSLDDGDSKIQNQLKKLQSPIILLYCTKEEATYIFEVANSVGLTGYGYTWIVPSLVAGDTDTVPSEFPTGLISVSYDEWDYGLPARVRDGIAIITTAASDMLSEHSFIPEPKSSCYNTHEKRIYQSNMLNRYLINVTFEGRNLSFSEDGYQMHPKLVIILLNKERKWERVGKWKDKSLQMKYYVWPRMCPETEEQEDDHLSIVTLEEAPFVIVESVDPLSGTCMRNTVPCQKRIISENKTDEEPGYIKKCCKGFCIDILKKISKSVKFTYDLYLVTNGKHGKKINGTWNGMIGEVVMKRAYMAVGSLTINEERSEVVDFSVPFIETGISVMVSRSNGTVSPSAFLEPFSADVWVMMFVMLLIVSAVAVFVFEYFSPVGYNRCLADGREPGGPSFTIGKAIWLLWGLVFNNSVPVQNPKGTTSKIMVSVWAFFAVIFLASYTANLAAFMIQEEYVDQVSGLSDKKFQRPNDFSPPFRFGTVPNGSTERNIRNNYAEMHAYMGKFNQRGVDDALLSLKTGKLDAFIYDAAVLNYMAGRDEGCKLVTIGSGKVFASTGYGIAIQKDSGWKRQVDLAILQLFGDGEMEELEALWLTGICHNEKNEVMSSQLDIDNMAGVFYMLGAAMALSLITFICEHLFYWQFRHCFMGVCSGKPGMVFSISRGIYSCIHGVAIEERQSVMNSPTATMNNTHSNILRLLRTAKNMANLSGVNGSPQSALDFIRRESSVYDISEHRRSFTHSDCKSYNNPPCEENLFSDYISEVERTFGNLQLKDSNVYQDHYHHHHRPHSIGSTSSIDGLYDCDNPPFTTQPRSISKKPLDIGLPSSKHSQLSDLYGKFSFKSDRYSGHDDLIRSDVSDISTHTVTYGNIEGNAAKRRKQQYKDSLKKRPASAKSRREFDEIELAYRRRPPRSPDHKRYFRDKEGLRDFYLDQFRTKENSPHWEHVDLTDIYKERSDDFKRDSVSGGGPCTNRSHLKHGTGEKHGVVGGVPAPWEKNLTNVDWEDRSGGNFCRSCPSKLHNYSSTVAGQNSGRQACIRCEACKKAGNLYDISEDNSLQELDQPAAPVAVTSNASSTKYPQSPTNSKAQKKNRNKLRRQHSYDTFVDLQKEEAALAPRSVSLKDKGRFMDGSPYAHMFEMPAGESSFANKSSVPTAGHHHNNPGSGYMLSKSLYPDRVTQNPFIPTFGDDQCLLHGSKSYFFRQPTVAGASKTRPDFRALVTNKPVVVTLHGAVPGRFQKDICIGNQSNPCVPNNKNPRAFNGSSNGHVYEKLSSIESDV
UniProt Q00959, 23-1464: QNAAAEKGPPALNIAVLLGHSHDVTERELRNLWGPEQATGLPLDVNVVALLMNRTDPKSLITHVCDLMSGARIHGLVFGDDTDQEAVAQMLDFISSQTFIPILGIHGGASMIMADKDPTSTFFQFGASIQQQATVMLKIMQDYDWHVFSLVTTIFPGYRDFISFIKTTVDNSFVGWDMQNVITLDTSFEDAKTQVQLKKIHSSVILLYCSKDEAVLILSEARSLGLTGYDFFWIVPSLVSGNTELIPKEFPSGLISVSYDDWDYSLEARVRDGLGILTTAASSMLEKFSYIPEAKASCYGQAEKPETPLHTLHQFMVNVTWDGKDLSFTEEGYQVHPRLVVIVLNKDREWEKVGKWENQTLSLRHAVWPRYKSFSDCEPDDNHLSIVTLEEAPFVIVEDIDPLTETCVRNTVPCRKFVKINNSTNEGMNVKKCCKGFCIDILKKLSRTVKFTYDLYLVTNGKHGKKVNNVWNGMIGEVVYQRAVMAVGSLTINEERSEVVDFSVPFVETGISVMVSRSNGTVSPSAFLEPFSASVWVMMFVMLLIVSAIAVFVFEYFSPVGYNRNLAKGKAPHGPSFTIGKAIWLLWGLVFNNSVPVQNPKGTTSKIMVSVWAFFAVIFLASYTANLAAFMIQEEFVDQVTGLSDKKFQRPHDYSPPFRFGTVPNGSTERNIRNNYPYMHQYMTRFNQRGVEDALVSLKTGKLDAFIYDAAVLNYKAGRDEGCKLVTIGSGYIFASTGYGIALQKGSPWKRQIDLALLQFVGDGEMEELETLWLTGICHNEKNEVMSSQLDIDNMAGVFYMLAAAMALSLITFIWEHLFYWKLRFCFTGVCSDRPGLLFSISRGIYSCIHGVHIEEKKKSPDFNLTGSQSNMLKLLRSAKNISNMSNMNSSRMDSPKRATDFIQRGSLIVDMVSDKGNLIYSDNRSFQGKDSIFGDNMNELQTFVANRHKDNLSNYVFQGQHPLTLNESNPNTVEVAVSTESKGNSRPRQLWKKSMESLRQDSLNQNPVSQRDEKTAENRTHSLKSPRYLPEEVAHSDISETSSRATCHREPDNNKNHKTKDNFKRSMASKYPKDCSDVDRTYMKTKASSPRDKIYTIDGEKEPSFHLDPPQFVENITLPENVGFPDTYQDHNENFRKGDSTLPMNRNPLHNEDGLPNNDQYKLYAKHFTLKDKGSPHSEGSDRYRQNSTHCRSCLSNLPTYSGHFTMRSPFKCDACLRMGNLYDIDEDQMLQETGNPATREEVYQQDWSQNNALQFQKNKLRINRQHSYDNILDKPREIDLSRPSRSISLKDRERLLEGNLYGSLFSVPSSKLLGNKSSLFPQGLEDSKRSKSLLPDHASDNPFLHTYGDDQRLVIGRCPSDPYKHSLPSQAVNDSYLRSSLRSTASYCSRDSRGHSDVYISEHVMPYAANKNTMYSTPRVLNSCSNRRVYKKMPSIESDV
UniProt Q91YD4, whole entry: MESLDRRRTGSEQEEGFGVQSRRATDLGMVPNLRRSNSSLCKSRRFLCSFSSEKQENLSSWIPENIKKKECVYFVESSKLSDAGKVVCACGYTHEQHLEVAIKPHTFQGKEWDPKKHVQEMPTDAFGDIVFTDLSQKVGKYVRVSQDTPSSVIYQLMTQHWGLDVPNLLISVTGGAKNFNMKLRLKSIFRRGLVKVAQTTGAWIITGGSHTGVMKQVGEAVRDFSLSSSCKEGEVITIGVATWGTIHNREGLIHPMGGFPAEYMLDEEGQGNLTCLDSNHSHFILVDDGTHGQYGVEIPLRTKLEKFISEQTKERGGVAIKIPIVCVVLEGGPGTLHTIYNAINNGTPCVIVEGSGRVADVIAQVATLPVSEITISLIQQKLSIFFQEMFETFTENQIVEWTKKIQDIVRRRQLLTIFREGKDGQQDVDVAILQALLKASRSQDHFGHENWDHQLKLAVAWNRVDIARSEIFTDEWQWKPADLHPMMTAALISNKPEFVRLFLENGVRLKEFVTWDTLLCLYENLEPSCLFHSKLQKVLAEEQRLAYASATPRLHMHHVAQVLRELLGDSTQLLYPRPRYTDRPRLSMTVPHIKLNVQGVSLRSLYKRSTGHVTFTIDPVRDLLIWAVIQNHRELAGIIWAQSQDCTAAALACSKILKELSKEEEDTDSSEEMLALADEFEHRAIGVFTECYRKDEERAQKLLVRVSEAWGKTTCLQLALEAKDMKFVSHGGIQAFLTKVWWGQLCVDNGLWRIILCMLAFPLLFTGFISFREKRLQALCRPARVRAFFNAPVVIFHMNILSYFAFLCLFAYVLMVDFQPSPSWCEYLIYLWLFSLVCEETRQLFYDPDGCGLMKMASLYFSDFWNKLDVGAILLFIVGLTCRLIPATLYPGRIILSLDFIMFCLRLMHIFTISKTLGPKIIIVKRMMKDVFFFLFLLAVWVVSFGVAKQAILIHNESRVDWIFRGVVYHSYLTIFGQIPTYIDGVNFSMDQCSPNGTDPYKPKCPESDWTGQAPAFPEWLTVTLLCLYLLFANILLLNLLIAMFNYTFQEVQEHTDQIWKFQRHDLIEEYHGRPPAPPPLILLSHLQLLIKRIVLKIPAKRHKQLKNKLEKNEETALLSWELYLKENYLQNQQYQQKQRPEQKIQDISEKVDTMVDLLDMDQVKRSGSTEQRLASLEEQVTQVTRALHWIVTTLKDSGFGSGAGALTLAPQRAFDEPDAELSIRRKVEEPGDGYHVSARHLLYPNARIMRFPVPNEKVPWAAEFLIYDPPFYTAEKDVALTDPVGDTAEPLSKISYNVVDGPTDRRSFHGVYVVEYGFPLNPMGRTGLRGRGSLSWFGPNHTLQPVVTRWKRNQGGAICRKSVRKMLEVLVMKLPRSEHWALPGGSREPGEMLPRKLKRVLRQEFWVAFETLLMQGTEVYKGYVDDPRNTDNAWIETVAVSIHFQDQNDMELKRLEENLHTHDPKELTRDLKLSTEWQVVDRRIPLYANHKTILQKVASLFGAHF
UniProt Q01097, 27-1482: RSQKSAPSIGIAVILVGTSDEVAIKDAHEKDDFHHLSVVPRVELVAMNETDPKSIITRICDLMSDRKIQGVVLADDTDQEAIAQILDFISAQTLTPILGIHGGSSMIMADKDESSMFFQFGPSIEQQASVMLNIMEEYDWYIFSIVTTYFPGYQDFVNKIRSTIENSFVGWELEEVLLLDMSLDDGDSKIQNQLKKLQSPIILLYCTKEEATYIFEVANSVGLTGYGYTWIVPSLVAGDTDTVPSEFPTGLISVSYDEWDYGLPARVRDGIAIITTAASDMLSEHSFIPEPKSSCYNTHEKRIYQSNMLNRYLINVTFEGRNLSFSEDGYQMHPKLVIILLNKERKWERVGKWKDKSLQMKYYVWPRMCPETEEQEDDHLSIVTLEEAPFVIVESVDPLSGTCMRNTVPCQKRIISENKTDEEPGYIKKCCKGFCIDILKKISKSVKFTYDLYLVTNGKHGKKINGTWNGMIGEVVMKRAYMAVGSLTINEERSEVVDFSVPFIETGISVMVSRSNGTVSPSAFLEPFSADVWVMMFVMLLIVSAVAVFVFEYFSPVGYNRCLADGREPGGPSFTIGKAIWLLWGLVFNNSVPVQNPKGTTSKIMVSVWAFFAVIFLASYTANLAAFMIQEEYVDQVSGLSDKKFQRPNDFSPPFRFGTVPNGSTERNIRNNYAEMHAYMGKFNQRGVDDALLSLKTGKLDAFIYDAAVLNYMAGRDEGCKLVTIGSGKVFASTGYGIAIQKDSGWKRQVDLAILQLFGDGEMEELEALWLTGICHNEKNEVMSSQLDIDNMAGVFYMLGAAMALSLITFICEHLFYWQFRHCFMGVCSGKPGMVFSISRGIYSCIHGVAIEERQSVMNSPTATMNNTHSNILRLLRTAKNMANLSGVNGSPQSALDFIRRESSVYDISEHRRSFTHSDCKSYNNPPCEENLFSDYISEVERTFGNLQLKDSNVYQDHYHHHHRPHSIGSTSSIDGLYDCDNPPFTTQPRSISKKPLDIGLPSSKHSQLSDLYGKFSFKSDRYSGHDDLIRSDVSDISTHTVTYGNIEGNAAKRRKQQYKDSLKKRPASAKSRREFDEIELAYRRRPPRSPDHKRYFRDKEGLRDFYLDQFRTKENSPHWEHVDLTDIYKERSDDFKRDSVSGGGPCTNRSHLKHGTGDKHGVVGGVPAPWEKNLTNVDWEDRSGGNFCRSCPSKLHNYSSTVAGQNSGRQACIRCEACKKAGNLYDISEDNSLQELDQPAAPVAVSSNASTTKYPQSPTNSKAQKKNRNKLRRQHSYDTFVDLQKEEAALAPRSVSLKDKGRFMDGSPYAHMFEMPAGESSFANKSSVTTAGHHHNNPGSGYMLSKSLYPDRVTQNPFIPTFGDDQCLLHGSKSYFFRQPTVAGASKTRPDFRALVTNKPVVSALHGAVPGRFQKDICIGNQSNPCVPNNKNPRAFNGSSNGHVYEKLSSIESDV

Assays:
Assay in all cases: co-IP
[1] = target: GluN2B (NMDAR subunit GluN2b) (UniProt Q00960)
[2] = target: GluN2A (NMDAR subunit GluN2a) (UniProt Q00959)
[3] = target: TRPM2-EQE (E673Q and E674Q) (human) (UniProt O94759)
[4] = target: Flag-tagged TRPM2 (Flag-TRPM2), full length (human) (UniProt O94759)
[5] = target: Flag-TRPM2-NT, N-terminal fragment of TRPM2 (1-727) (human) (UniProt O94759)
[6] = target: TRPM2-EEQ (E680Q and E681Q) (human) (UniProt O94759)
[7] = target: TRPM2-QEE (E666Q and E667Q) (human) (UniProt O94759)
[8] = target: Flag-tagged TRPM2 (Flag-TRPM2), full length (human) (UniProt O94759); remark: listed apart in the source
[9] = target: endogenous TRPM2 of mouse brain (mouse (endogenous in brain)) (UniProt Q91YD4)
[10] = target: GluN1a (NMDAR subunit GluN1) (UniProt P35439)
[11] = target: endogenous GluN2a of mouse brain (mouse (endogenous in brain)) (UniProt P35436)
[12] = target: endogenous GluN2b of mouse brain (mouse (endogenous in brain)) (UniProt Q01097)
[13] = target: GluN2B (NMDAR subunit GluN2b) (UniProt Q00960); remark: listed apart in the source
[14] = target: GluN2A (NMDAR subunit GluN2a) (UniProt Q00959); remark: listed apart in the source
[15] = target: endogenous TRPM2 of mouse brain (mouse (endogenous in brain)) (UniProt Q91YD4); remark: listed apart in the source
[16] = target: GFP-TRPM2-CT, C-terminal fragment of TRPM2 (1060-1503) (human) (UniProt O94759)

Substance: TRPM2-QEE (E666Q and E667Q) (from UniProt O94759 1-1503)
- binding [1]: binds
- binding [2]: binds

Substance: GluN2A (NMDAR subunit GluN2a) (from UniProt Q00959 23-1464)
- binding [3]: no binding
- binding [4]: binds
- binding [5]: binds
- binding [6]: binds
- binding [7]: binds
- binding [8]: binds

Substance: endogenous GluN2b of mouse brain (from UniProt Q01097 27-1482)
- binding [9]: binds

Substance: Flag-TRPM2 N-terminal fragment 1-664 (from UniProt O94759 1-664) (domain or fragment)
- binding [1]: no binding
- binding [2]: no binding

Substance: TRPM2-EEQ (E680Q and E681Q) (from UniProt O94759 1-1503)
- binding [1]: binds
- binding [2]: binds

Substance: Flag-TRPM2 N-terminal segment 1-570 (from UniProt O94759 1-570) (domain or fragment)
- binding [1]: no binding
- binding [2]: no binding

Substance: GFP-TRPM2-CT, C-terminal fragment of TRPM2 (1060-1503) (from UniProt O94759 1060-1503) (domain or fragment)
- binding [1]: no binding
- binding [10]: no binding
- binding [2]: no binding

Substance: endogenous TRPM2 of mouse brain (from UniProt Q91YD4 1-1506)
- binding [11]: binds
- binding [12]: binds

Substance: TRPM2-EQE (E673Q and E674Q) (from UniProt O94759 1-1503)
- binding [1]: no binding
- binding [2]: no binding

Substance: Flag-TRPM2 N-terminal segment 1-631 (from UniProt O94759 1-631) (domain or fragment)
- binding [1]: no binding
- binding [2]: no binding

Substance: Flag-TRPM2-NT, N-terminal fragment of TRPM2 (1-727) (from UniProt O94759 1-727) (domain or fragment)
- binding [1]: binds
- binding [2]: binds

Substance: Flag-tagged TRPM2 (Flag-TRPM2), full length (from UniProt O94759 1-1503)
- binding [13]: binds
- binding [14]: binds
- binding [1]: binds
- binding [2]: binds

Substance: endogenous PKCγ of mouse brain and neurons (from UniProt P63318 1-697) (enzyme)
- binding [15]: binds
- binding [9]: binds

Substance: endogenous GluN2a of mouse brain (from UniProt P35436 23-1464)
- binding [9]: binds

Substance: PKC-γ (over-expressed) (from UniProt P05129 1-697) (enzyme)
- binding [4]: binds
- binding [5]: binds
- binding [16]: no binding

Substance: GluN2B (NMDAR subunit GluN2b) (from UniProt Q00960 27-1482)
- binding [3]: no binding
- binding [4]: binds
- binding [5]: binds
- binding [6]: binds
- binding [7]: binds
- binding [8]: binds
